Measurements from publication doi:10.1101/2024.12.15.628532.
No constants are given. Whether binding was seen depends on the method and setting. In cells and extracts the contact can be indirect. Binding calls can cover weak binding; strength is not graded here.

Target: GST-Sec5 Ral binding domain (RBD) (UniProt Q96KP1)
Assay: pull-down

Binder | binding
RALA (endogenous, mouse fibroblasts) (protein, UniProt P63321 1-206) MAANKPKGQNSLALHKVIMVGSGGVGKSALTLQFMYDEFVEDYEPTKADSYRKKVVLDGEEVQIDILDTAGQEDYAAIRDNYFRSGEGFLCVFSITEMESFAATADFREQILRVKEDENVPFLLVGNKSDLEDKRQVSVEEAKNRADQWNVNYVETSAKTRANVDKVFFDLMREIRARKMEDSKEKNGKKKRKSLAKRIRERCCIL | binds
WT-RALA (protein, UniProt P11233 1-206) MAANKPKGQNSLALHKVIMVGSGGVGKSALTLQFMYDEFVEDYEPTKADSYRKKVVLDGEEVQIDILDTAGQEDYAAIRDNYFRSGEGFLCVFSITEMESFAATADFREQILRVKEDENVPFLLVGNKSDLEDKRQVSVEEAKNRAEQWNVNYVETSAKTRANVDKVFFDLMREIRARKMEDSKEKNGKKKRKSLAKRIRERCCIL | binds
S194A-RALA (protein, UniProt P11233 1-206) MAANKPKGQNSLALHKVIMVGSGGVGKSALTLQFMYDEFVEDYEPTKADSYRKKVVLDGEEVQIDILDTAGQEDYAAIRDNYFRSGEGFLCVFSITEMESFAATADFREQILRVKEDENVPFLLVGNKSDLEDKRQVSVEEAKNRAEQWNVNYVETSAKTRANVDKVFFDLMREIRARKMEDSKEKNGKKKRKALAKRIRERCCIL | binds
S194D-RALA (protein, UniProt P11233 1-206) MAANKPKGQNSLALHKVIMVGSGGVGKSALTLQFMYDEFVEDYEPTKADSYRKKVVLDGEEVQIDILDTAGQEDYAAIRDNYFRSGEGFLCVFSITEMESFAATADFREQILRVKEDENVPFLLVGNKSDLEDKRQVSVEEAKNRAEQWNVNYVETSAKTRANVDKVFFDLMREIRARKMEDSKEKNGKKKRKDLAKRIRERCCIL | binds
RALA (endogenous, MCF7 and MiaPaCa2 cells) (protein, UniProt P11233 1-206) MAANKPKGQNSLALHKVIMVGSGGVGKSALTLQFMYDEFVEDYEPTKADSYRKKVVLDGEEVQIDILDTAGQEDYAAIRDNYFRSGEGFLCVFSITEMESFAATADFREQILRVKEDENVPFLLVGNKSDLEDKRQVSVEEAKNRAEQWNVNYVETSAKTRANVDKVFFDLMREIRARKMEDSKEKNGKKKRKSLAKRIRERCCIL | binds
RALB (endogenous, MCF7 and MiaPaCa2 cells) (protein, UniProt P11234 1-206) MAANKSKGQSSLALHKVIMVGSGGVGKSALTLQFMYDEFVEDYEPTKADSYRKKVVLDGEEVQIDILDTAGQEDYAAIRDNYFRSGEGFLLVFSITEHESFTATAEFREQILRVKAEEDKIPLLVVGNKSDLEERRQVPVEEARSKAEEWGVQYVETSAKTRANVDKVFFDLMREIRTKKMSENKDKNGKKSSKNKKSFKERCCLL | binds
